System: GABAA receptors of HDC−/− TMN neurons
Experiment: GABA-evoked whole-cell currents in TMN neurons from HDC−/− mice
Format: cell-based, mouse
Details: read-out: GABA potency EC50; adult HDC−/− mice, n = 15
Procedure: Recordings from histaminergic neurons in male Wistar rat (22–26 day old) or 30–60 day old mouse (SV129, histidine decarboxylase deficient HDC−/− or their wild type littermates) hypothalamic slices were performed as previously described. Slices were obtained between 9 and 11 a.m. In the beginning of whole-cell voltage clamp recordings TMN neurons were identified with the help of DIC microscopy and electrophysiological criteria as previously described. Inhibitory postsynaptic currents (IPSCs) were evoked by local stimulation through a bipolar stainless-steel stimulating electrode (50 µm; WPI, UK). The stimulation of axonal endings coming to TMN from ventrolateral preoptic area (VLPO) was done as described in [22]. […] Individual neurons were separated by vibrodissociation after brief preincubation with papain from the hypothalamic slices of mice or rats and identified as TMN neurons according to their size and shape. Identification was confirmed post hoc with the single-cell RT-PCR (all data presented in the manuscript were obtained from histidine decarboxylase-expressing neurons), [40]. TMN neurons from HDC−/− mice were identified by the expression of peripherin [16]. […] Membrane potentials were not corrected for liquid junction potential (5.6 mV, calculated with LJPCalc, Barry, 1994). […]

With `NCCCC(=O)O` [GABA] the EC50 was 15.6 ± 5 µM.
